Data as given in US20230314435A1, “MARKER OF CALCIUM-OVERLOAD-MEDIATED NEURONAL DEATH AND APPLICATION THEREOF” (Capital Medical University, priority 2022, published 2023).
At least one structure is not confirmed: it was looked up by name or label, or the drawing left a doubt.

How the values were obtained:
[1] = test system: neuroblastoma (SKN-SH) cells; assay: Western blot of autophagy markers in alpha-synuclein over-expressed neuroblastoma cells; assay type: cell-based
[2] = test system: neuroblastoma (SKN-SH) cells; assay: LysoTracker staining of alpha-synuclein over-expressed neuroblastoma cells; assay type: cell-based; settings: 48 hours

`O=c1[nH]c2ccccc2n1C1CCN(CCCC(c2ccc(F)cc2)c2ccc(F)cc2)CC1` [PMZ, Pimozide] was tested, and the LC3-II protein level [1] was “up-regulate”, the P62 protein level [1] was “down-regulate” and the LysoTracker signals [2] was “could recover LysoTracker signals”.
